In publication PMC8380656, “The structure and flexibility analysis of the Arabidopsis synaptotagmin 1 reveal the basis of its regulation at membrane contact sites” (Life Science Alliance, 2021):
Results are given in words; binding and its absence hold for the method and conditions named. Where a sequence is shown, tags or fusion partners need not be part of it.

Biological target: SYT1C2AB (Arabidopsis synaptotagmin 1, C2A and C2B domains, residues K253-C terminus) (Arabidopsis) (UniProt Q9SKR2)
Assay: SAXS (SEC-SAXS); 45 ul of SYT1C2AB at 10 mg ml^-1 injected onto Superdex 200 increase 3.2/300 at 20°C; 50 mM Tris pH 8, 50 mM NaCl; with 1 mM Ca2+ or 1 mM EGTA (no significant differences); molecular mass from the Porod volume; both purified

B1: SYT1C2AB (Arabidopsis synaptotagmin 1, C2A and C2B domains, residues K253-C terminus) (domain or fragment, UniProt Q9SKR2 253-541)
chain: KAFRRPVGIVHVKVVRAVGLRKKDLMGGADPFVKIKLSEDKIPSKKTTVKHKNLNPEWNEEFKFSVRDPQTQVLEFSVYDWEQVGNPEKMGMNVLALKEMVPDEHKAFTLELRKTLDGGEDGQPPDKYRGKLEVELLYKPFTEEEMPKGFEETQAVQKAPEGTPAAGGMLVVIVHSAEDVEGKHHTNPYVRIYFKGEERKTKHVKKNRDPRWNEEFTFMLEEPPVREKLHVEVLSTSSRIGLLHPKETLGYVDIPVVDVVNNKRMNQKFHLIDSKNGKIQIELEWRTAS
B1 was tested, and the binding was “no binding (tested: 10 mg ml^-1 injected)”.
